Results from PubChem BioAssay (EPA / NIEHS).
Inconclusive means that the source gave no clear call. Such entries were picked first, then a sample of the others. Where the call is inconclusive, the potency comes from a doubtful curve fit. Active and inactive are the calls of the source. The calls were made as follows: active = hit-call score of the fitted dose curve at least 0.9, where 1 is the maximum; inconclusive = response in the unintended direction; inactive = score below 0.9.

The chains behind the UniProt entries cited, without tags or fusion partners. Where a name states a change or a piece, a line headed by the entry shows the natural chain unless it says otherwise.
UniProt Q12923: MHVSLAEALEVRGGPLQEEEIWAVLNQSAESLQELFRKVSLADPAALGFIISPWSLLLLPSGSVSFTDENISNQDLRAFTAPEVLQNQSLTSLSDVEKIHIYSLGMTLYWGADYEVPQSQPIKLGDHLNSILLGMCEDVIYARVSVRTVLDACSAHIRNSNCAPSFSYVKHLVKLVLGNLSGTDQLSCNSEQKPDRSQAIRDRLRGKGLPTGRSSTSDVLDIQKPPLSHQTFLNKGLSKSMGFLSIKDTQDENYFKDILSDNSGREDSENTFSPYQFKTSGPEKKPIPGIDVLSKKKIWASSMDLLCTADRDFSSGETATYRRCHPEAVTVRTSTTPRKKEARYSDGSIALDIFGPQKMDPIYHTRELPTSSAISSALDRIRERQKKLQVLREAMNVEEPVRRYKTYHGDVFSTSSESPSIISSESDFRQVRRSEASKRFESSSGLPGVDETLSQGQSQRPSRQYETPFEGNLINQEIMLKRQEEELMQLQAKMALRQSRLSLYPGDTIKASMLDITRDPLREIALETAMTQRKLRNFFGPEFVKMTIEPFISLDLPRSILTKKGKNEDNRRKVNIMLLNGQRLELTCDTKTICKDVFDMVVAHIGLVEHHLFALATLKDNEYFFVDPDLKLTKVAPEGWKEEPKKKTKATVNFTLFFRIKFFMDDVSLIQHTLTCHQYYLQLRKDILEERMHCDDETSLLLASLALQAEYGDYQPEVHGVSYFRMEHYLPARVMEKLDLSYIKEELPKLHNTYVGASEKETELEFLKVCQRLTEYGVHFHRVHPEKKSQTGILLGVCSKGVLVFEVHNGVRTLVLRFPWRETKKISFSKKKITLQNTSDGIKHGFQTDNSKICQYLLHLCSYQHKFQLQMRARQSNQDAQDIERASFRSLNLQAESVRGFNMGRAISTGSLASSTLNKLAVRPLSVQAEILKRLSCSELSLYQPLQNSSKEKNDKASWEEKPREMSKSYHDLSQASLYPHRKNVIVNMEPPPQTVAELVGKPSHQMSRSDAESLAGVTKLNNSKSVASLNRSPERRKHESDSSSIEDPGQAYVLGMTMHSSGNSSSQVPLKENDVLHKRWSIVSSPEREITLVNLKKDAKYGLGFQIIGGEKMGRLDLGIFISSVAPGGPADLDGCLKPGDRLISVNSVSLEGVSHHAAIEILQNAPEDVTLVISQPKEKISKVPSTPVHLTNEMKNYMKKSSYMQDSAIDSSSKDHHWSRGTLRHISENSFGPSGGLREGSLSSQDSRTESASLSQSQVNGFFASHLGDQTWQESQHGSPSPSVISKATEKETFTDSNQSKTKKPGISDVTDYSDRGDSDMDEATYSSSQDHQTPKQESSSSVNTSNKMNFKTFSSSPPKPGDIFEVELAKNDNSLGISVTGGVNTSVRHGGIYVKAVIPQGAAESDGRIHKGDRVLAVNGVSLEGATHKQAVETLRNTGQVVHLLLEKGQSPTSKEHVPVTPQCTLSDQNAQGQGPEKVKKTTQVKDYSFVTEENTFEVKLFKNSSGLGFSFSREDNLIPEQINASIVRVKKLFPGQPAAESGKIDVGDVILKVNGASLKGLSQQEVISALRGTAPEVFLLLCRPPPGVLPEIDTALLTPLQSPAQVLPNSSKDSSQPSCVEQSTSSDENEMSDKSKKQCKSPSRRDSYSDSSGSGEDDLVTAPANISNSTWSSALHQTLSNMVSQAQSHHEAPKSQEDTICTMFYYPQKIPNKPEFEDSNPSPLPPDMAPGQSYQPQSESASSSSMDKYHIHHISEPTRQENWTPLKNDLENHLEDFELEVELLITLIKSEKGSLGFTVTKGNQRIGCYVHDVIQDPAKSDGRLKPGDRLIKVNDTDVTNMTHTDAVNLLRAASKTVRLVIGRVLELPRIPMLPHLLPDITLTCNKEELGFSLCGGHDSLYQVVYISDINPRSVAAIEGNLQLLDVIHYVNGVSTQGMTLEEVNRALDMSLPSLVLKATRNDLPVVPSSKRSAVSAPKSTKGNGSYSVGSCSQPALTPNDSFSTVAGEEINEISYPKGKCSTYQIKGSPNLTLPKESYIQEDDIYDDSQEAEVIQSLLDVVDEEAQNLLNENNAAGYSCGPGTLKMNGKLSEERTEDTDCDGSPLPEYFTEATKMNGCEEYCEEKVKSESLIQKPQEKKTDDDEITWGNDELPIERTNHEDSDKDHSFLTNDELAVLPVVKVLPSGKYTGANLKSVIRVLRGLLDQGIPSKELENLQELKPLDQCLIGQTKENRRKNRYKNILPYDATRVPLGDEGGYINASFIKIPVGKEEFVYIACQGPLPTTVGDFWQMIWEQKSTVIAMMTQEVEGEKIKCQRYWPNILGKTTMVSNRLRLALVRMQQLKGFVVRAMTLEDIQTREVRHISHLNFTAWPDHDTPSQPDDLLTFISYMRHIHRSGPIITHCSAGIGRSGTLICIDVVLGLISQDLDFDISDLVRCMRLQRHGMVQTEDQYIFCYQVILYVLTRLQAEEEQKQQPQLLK
UniProt Q15678: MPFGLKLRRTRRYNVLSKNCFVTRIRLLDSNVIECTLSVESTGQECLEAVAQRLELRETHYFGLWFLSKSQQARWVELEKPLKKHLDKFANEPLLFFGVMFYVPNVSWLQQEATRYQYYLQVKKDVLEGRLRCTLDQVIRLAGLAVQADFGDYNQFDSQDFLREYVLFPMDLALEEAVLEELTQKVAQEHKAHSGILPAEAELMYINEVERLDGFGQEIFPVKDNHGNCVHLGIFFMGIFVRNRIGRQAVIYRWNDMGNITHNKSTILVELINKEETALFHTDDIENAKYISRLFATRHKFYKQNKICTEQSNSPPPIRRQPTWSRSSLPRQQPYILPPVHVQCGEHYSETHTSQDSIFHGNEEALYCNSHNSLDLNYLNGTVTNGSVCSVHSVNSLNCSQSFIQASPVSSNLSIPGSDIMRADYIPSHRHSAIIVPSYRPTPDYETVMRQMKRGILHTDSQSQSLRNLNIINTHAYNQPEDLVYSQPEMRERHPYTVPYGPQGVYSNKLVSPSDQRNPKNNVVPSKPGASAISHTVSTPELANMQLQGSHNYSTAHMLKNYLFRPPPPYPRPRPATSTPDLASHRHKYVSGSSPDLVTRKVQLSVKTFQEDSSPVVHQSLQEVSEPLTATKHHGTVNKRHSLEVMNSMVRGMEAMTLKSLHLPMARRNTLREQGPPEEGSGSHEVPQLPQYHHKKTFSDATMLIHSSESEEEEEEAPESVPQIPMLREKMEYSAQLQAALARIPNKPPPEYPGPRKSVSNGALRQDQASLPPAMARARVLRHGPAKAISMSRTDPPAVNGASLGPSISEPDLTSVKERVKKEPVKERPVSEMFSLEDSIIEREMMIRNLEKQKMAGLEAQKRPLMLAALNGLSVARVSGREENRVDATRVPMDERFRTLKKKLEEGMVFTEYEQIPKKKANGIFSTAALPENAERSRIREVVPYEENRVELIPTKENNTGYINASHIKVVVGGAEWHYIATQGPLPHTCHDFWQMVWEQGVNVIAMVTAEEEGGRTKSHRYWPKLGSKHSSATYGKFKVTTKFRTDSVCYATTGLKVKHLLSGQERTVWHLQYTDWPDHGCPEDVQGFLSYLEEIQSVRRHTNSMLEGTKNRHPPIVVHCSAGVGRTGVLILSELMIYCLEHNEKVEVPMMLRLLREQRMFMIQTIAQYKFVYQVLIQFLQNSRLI
UniProt P43378: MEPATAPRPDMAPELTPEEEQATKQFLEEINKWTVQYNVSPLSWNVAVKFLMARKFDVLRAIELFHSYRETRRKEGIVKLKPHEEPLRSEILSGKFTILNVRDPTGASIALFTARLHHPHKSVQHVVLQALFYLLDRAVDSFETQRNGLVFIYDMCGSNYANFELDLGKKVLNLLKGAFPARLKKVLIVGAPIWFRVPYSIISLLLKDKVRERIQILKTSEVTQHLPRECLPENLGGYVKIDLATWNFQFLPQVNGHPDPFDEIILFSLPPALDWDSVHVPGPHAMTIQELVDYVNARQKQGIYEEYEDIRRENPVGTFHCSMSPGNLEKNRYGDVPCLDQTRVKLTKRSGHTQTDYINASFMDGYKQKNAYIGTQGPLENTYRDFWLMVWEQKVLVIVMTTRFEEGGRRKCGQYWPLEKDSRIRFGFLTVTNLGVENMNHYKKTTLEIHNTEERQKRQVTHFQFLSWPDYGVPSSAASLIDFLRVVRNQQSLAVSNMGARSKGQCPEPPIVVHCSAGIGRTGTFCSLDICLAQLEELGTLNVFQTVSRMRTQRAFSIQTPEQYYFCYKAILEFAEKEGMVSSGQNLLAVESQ
UniProt P28827, whole entry, looked up: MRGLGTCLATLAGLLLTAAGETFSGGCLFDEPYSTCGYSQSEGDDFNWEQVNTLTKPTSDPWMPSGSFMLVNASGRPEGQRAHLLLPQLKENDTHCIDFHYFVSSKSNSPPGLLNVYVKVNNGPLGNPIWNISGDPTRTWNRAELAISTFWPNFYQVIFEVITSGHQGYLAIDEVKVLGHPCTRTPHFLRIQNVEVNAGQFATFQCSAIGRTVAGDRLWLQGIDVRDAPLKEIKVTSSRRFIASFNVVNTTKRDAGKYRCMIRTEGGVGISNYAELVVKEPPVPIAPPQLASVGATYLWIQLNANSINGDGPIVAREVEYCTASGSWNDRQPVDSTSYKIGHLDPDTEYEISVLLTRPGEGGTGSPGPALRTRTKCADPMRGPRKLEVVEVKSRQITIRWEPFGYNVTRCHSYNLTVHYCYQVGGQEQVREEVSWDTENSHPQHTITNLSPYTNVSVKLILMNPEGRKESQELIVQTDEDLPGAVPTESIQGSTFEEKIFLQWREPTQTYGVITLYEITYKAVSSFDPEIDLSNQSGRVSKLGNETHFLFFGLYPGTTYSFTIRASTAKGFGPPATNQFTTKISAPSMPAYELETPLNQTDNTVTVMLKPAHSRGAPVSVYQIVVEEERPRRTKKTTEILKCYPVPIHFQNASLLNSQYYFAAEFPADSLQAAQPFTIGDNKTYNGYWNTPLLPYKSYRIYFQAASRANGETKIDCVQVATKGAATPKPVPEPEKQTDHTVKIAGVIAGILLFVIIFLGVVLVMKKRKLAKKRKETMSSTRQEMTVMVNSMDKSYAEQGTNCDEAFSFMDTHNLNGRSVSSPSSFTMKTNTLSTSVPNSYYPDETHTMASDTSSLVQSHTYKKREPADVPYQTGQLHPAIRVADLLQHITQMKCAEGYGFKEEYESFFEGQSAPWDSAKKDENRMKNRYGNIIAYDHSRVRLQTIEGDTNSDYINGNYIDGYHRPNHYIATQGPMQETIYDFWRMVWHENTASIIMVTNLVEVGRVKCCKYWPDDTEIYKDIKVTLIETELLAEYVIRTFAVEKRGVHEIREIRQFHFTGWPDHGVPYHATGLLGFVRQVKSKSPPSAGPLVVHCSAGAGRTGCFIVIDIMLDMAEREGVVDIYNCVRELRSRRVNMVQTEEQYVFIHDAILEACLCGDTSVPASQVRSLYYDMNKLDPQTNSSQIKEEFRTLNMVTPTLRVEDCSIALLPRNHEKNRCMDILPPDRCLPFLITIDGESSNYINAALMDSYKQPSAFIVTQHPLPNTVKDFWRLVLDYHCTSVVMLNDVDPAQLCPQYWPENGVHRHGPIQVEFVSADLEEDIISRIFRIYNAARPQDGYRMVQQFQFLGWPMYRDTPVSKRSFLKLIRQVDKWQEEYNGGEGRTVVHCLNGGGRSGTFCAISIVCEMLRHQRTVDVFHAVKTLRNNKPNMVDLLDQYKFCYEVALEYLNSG
UniProt Q8IXJ6: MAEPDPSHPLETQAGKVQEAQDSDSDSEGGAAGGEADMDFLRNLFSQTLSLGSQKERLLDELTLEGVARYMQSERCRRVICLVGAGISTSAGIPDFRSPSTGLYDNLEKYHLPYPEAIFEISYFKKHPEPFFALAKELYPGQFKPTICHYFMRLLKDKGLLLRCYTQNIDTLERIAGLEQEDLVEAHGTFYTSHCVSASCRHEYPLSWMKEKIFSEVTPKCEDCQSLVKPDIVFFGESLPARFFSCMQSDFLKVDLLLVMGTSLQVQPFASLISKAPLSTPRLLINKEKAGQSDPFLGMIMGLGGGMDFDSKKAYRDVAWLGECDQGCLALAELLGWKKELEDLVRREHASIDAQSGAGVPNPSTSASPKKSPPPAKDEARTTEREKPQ
UniProt P62136, whole entry, looked up: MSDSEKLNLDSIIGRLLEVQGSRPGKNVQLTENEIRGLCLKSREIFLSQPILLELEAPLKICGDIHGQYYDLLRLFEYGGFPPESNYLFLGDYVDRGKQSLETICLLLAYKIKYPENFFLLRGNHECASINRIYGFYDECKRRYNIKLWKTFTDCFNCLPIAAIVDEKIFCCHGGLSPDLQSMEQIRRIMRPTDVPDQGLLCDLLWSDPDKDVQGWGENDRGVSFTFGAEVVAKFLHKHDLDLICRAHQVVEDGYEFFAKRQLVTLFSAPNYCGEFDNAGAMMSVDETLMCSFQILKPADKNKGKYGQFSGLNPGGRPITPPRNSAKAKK

Assays:
[1] = target: human Phosphodiesterase 10 (PDE10), PDE10A (gene 10846) (UniProt Q9Y233); assay: NVS_ENZ_hPDE10: NovaScreen (NVS) Enzymatic Assay for human Phosphodiesterase 10 (PDE10) (AID 2283195)
Procedure, shortened: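 Fluorescence readout after mobility-shift separation of substrate and product, 1 h reaction with recombinant human enzyme. Single-concentration duplicates at 25 uM, then concentration-response up to 50 uM for chemicals reaching threshold; DMSO baseline.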

[2] = target: human Phosphoinositide 3-kinase alpha (PI3Ka), PIK3CA (gene 5290) (UniProt P42336); assay: NVS_ENZ_hPI3Ka: NovaScreen (NVS) Enzymatic Assay for human Phosphoinositide 3-kinase alpha (PI3Ka) (AID 2283196)
Procedure, shortened: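 Duplicate single-point screen (25 uM), then singleton dose-response (max 50 uM) for compounds meeting the threshold. Cell-free kinase reaction, 1 h; fluorescent mobility-shift readout.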

[3] = target: Tyrosine-protein phosphatase non-receptor type 11 (Homo sapiens) (UniProt Q06124); assay: NVS_ENZ_hPTPN11: NovaScreen (NVS) Enzymatic Assay for human Protein Tyrosine Phosphatase Non-receptor Type 11 (PTPN11) (AID 2283202)
Procedure, shortened: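 Compounds first tested in duplicate at 25 uM; those reaching ~30% inhibition rerun in singleton concentration-response, top 50 uM. Phosphatase activity measured after 0.5 h by fluorescence with mobility-shift separation, relative to DMSO.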

[4] = target: Tyrosine-protein phosphatase non-receptor type 13 (Homo sapiens) (UniProt Q12923); assay: NVS_ENZ_hPTPN13: NovaScreen (NVS) Enzymatic Assay for human Protein Tyrosine Phosphatase Non-receptor Type 13 (PTPN13) (AID 2283205)
Procedure, shortened: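 Screened first at a single 25 uM in duplicate; compounds passing the threshold (e.g. 30% inhibition) were rerun in concentration series, top 50 uM. Recombinant enzyme, fluorescent substrate, mobility-shift separation, 0.5 h read. Data fitted as inhibition relative to DMSO.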

[5] = target: Tyrosine-protein phosphatase non-receptor type 14 (Homo sapiens) (UniProt Q15678); assay: NVS_ENZ_hPTPN14: NovaScreen (NVS) Enzymatic Assay for human Protein Tyrosine Phosphatase Non-receptor Type 14 (PTPN14) (AID 2283206)
Procedure, shortened: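 Fluorescent substrate turnover by recombinant human PTPN14 was measured 0.5 h after compound addition, with substrate and product separated by mobility shift. Single-point screening at 25 uM, then concentration-response up to 50 uM for chemicals meeting threshold (e.g., 30% inhibition).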

[6] = target: human Protein Tyrosine Phosphatase Non-receptor Type 9 (PTPN9), PTPN9 (gene 5780) (UniProt P43378); assay: NVS_ENZ_hPTPN9: NovaScreen (NVS) Enzymatic Assay for human Protein Tyrosine Phosphatase Non-receptor Type 9 (PTPN9) (AID 2283209)
Procedure, shortened: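 Sf9-expressed enzyme in a cell-free assay, fluorescence read 1.33 h after dosing with mobility-shift separation of substrate and product. Tested at 25 uM in duplicate, then up to 50 uM; signal loss versus DMSO.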

[7] = target: human Protein Tyrosine Phosphatase Receptor Type F (PTPRF), PTPRF (gene 5792) (UniProt P10586); assay: NVS_ENZ_hPTPRF: NovaScreen (NVS) Enzymatic Assay for human Protein Tyrosine Phosphatase Receptor Type F (PTPRF) (AID 2283213)
Procedure, shortened: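 Cell-free fluorescence enzyme assay with recombinant protein and substrate; product separated by electrophoretic mobility shift. Read 1 h after dosing, single 25 uM duplicate screen, then concentration-response up to 50 uM; loss of signal vs DMSO.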

[8] = target: human Protein Tyrosine Phosphatase Receptor Type M (PTPRM), PTPRM (gene 5797) (UniProt P28827); assay: NVS_ENZ_hPTPRM: NovaScreen (NVS) Enzymatic Assay for human Protein Tyrosine Phosphatase Receptor Type M (PTPRM) (AID 2283215)
Procedure, shortened: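 Read-out is fluorescence after electrophoretic separation of substrate and product, taken 1.33 h post-dosing with recombinant enzyme. Compounds screened at 25 uM in duplicate, then concentration series for actives; activity as signal loss relative to DMSO.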

[9] = target: human Sirtuin 2 (SIRT2), SIRT2 (gene 22933) (UniProt Q8IXJ6); assay: NVS_ENZ_hSIRT2: NovaScreen (NVS) Enzymatic Assay for human Sirtuin 2 (SIRT2) (AID 2283217)
Procedure, shortened: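 Single-point duplicate screen at 25 uM, then concentration-response (max 50 uM) for chemicals passing threshold. Enzyme activity of recombinant human SIRT2 measured after 1 hr by fluorescence with mobility-shift separation of product; DMSO baseline.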

[10] = target: Serine/threonine-protein phosphatase PP1-alpha catalytic subunit (Homo sapiens) (UniProt P62136); assay: NVS_ENZ_hPPP1CA: NovaScreen (NVS) Enzymatic Assay for human Protein Phosphatase 1 Aatalytic subunit Alpha (PPP1CA) (AID 2283200)
Procedure, shortened: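 Chemicals were first screened in duplicate at 25 uM, and those passing threshold (e.g. 30% inhibition) were run as concentration series to 50 uM. Cell-free recombinant protein, 1.33 h read, fluorescent substrate/product mobility-shift detection, normalised to DMSO.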

[11] = target: human Rho Associated Coiled-coil Containing Protein Kinase 1 (ROCK1), ROCK1 (gene 6093) (UniProt Q13464); assay: NVS_ENZ_hROCK1: NovaScreen (NVS) Enzymatic Assay for human Rho Associated Coiled-coil Containing Protein Kinase 1 (ROCK1) (AID 2283214)
Procedure, shortened: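 Compounds first run in duplicate at 25 uM against recombinant human ROCK1, then followed in concentration series. Kinase activity was read 1 h post-dosing by fluorescence with mobility-shift separation, as signal loss relative to DMSO.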

Compound: FC(F)(F)C(F)(F)C(F)(F)C(F)(F)C(F)(F)C(F)(F)CCI
- AC50 [1]: inconclusive: 12.5 µM
- AC50 [2]: inconclusive: 0.0426 µM
- AC50 [3]: inconclusive: 3.41 µM
- AC50 [4]: inconclusive: 12.5 µM
- AC50 [5]: inconclusive: 12.5 µM
- AC50 [6]: inconclusive: 0.00114 µM
- AC50 [7]: inconclusive: 12.5 µM
- AC50 [8]: inconclusive: 0.126 µM
- AC50 [9]: inconclusive: 0.225 µM

Compound: CCC(C)c1cc([N+](=O)[O-])cc([N+](=O)[O-])c1OC(=O)OC(C)C (stereo not drawn)
- outcome [1]: inactive

Compound: O=C1OC2(c3cc(Br)c(O)c(Br)c3Oc3c2cc(Br)c(O)c3Br)c2c(Cl)c(Cl)c(Cl)c(Cl)c21
- AC50 [1]: inconclusive: 16.5 µM
- AC50 [2]: active: 1.86 µM

Compound: O=C1NC(=O)C(c2ccccc2)(c2ccccc2)N1
- AC50 [1]: inconclusive: 0.559 µM
- AC50 [2]: inconclusive: 25 µM
- AC50 [4]: inconclusive: 0.345 µM
- outcome [8]: inactive

Compound: OCc1c[nH]c2ccccc12
- AC50 [1]: active: 40.2 µM

Compound: C#CC(O)CCC (stereo not drawn)
- outcome [1]: inactive

Compound: COCc1c(C(C)C)nc(C(C)C)c(/C=C/[C@@H](O)C[C@@H](O)CC(=O)O)c1-c1ccc(F)cc1
- AC50 [1]: inconclusive: 11.5 µM

Compound: Cc1ccc2ncccc2c1
- AC50 [1]: inconclusive: 25 µM
- AC50 [10]: inconclusive: 4.26 µM
- outcome [6]: inactive
- AC50 [7]: inconclusive: 25 µM

Compound: CCCCC(CC)CN1C(=O)C2C3C=CC(C3)C2C1=O (stereo not drawn)
- AC50 [1]: inconclusive: 0.386 µM

Compound: N#Cc1ccccc1
- outcome [2]: inactive

Compound: C1CCOC1
- AC50 [2]: inconclusive: 25 µM

Compound: CCc1nn(C2CCCCC2)c2cc(C3(C#N)CCC(C(=O)O)CC3)ccc12 (stereo not drawn)
- outcome [1]: inactive

Compound: C=CC(=O)O[C@H]1C[C@@H]2CC[C@@]1(C)C2(C)C
- AC50 [1]: active: 3.57 µM

Compound: COC(=O)/C=C\C(=O)OC
- outcome [1]: inactive

Compound: CCCCCCOC(C)=O
- outcome [2]: inactive

Compound: CC(=O)C=O
- AC50 [1]: inconclusive: 25 µM

Compound: CC1=C(/C=C/C(C)=C/C=C/C(C)=C/CO)C(C)(C)CCC1
- AC50 [1]: inconclusive: 26.1 µM
- AC50 [2]: inconclusive: 0.366 µM

Compound: CC(C)(C)c1n[nH]c(=O)n(N)c1=O
- outcome [1]: inactive

Compound: Oc1c(Cl)cc(Cl)c(Cl)c1Cc1c(O)c(Cl)cc(Cl)c1Cl
- outcome [1]: inactive

Compound: CCCCCCCCCCCCCCCCCC[N+](C)(C)C
- AC50 [1]: active: 1.71 µM

Compound: CC(C)(C)CC(C)(C)c1ccc(O)c(-n2nc3ccccc3n2)c1
- AC50 [2]: inconclusive: 6.61 µM
- AC50 [11]: inconclusive: 25 µM
